The list is a part of this screen's results and no random one: it is rich in T/C values a quarter to a half above the control, in often repeated tests (any T/C) and in doses without a T/C. Further doses and runs are listed elsewhere. T/C: endpoint of the treated group in % of that of the vehicle group. Some doses have a count of surviving animals in place of a T/C: the source files T/C as zero there, which appears to mark a toxic dose or a test without result, not a measured value. Some survivor counts are full or nearly so, which does not show that the dose was tolerated: the source hardly ever lists a survival T/C far under the control, and the zero likely stands for such cases as well. Survivors were counted at the toxicity check, usually on the fifth day, unless a day is given; later deaths do not show. Schedules are NCI's codes, read here as Q, the interval in days (D) or hours (H), X, the number of doses. Some entries were tested several times; the results are listed from low to high. Where survival is the endpoint, this PubChem deposit counts one and a half times the control or more as active, and values a quarter to a half above the control carry no call in these data; other NCI protocols may use other cut-offs. Some T/C values carry the count of animals alive at the toxicity check (mostly the fifth day); where none is given, no animal had died by that day. Peptide text beside a SMILES is read from it. * marks the point of attachment. Cbz = O=C(OCc1ccccc1)*
Tested on: BDF1 mice, B16 melanoma ip, median survival T/C
Test: NCI In Vivo Anticancer Drug Screen. Data for tumor model B16 Melanoma (intraperitoneal) in B6D2F1 (BDF1) mice
Conditions: T/C endpoint: median survival time, higher T/C = longer survival
In short: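 Survival or tumor size is measured after treatment of tumor-bearing mice and normalised to the vehicle-treated control group.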

[1] = dose: 50.0 mg/kg/injection, schedule: Q01DX009 (ip), vehicle: saline with Tween-80
[2] = dose: 100.0 mg/kg/injection, schedule: Q01DX009 (ip), vehicle: saline with Tween-80
[3] = dose: 200.0 mg/kg/injection, schedule: Q01DX009 (ip), vehicle: saline with Tween-80
[4] = dose: 100.0 mg/kg/injection, schedule: Q01DX009 (ip), vehicle: saline
[5] = dose: 200.0 mg/kg/injection, schedule: Q01DX009 (ip), vehicle: saline
[6] = dose: 12.5 mg/kg/injection, schedule: Q01DX009 (ip), vehicle: Klucel (hydroxypropylcellulose) (HPC)
[7] = dose: 25.0 mg/kg/injection, schedule: Q01DX009 (ip), vehicle: Klucel (hydroxypropylcellulose) (HPC)
[8] = dose: 50.0 mg/kg/injection, schedule: Q01DX009 (ip), vehicle: Klucel (hydroxypropylcellulose) (HPC)
[9] = dose: 100.0 mg/kg/injection, schedule: Q01DX009 (ip), vehicle: Klucel (hydroxypropylcellulose) (HPC)
[10] = dose: 200.0 mg/kg/injection, schedule: Q01DX009 (ip), vehicle: Klucel (hydroxypropylcellulose) (HPC)
[11] = dose: 400.0 mg/kg/injection, schedule: Q01DX009 (ip), vehicle: Klucel (hydroxypropylcellulose) (HPC)
[12] = dose: 400.0 mg/kg/injection, schedule: Q01DX009 (ip), vehicle: saline with Tween-80

For Cc1ccc(NC(=O)Nc2ccc(C)c(NC(=O)Nc3ccc(C)c(Cl)c3)c2)cc1Cl, the survivor count [1] was 10 of 10, the survivor count [2] was 10 of 10 and the survivor count [3] was 10 of 10.

With CCCCOC(=O)c1ccc(NC(=O)Nc2ccccc2Cl)cc1 the survivor count [2] was 9 of 10 and the survivor count [3] was 7 of 10.

In the case of O=C(O)C(O)C(=O)O.[NH2-].[NH2-].[Pt+2], the T/C (dose: 2.0 mg/kg/injection, schedule: Q01DX009 (ip), vehicle: other) is reported as 131 % of control, the survivor count (dose: 24.0 mg/kg/injection, schedule: Q01DX009 (ip), vehicle: other) is reported as 8 of 9 and the survivor count (dose: 32.0 mg/kg/injection, schedule: Q01DX009 (ip), vehicle: other) is reported as 10 of 10.

O=[N+]([O-])c1ccc(NCCO)c([N+](=O)[O-])c1 was tested, and the survivor count (dose: 400.0 mg/kg/injection, schedule: Q04DX003 (ip), vehicle: saline with Tween-80) was 8 of 10.

With CNCCCN1c2ccccc2CCc2ccccc21 the survivor count [4] was 1 of 10, the survivor count [5] was 0 of 10 and the survivor count (dose: 400.0 mg/kg/injection, schedule: Q01DX009 (ip), vehicle: saline) was 0 of 10.

For CC(Cl)CN(CC(C)Cl)C(=O)OCC(NC(=O)OCc1ccccc1)C(=O)OCc1ccccc1 (stereo not drawn), the survivor count (dose: 50.0 mg/kg/injection, schedule: Q04DX003 (ip), vehicle: Klucel (hydroxypropylcellulose) (HPC)) was 10 of 10, the survivor count (dose: 100.0 mg/kg/injection, schedule: Q04DX003 (ip), vehicle: Klucel (hydroxypropylcellulose) (HPC)) was 10 of 10 and the survivor count (dose: 200.0 mg/kg/injection, schedule: Q04DX003 (ip), vehicle: Klucel (hydroxypropylcellulose) (HPC)) was 9 of 10. For the same molecule, the survivor count (dose: 400.0 mg/kg/injection, schedule: Q04DX003 (ip), vehicle: Klucel (hydroxypropylcellulose) (HPC)) was 10 of 10.

In the case of COc1cc(OC)c(NC(=O)NC(C)C)cc1Cl, the survivor count (dose: 100.0 mg/kg/injection, schedule: Q01DX009 (ip), vehicle: saline + alcohol) is reported as 9 of 10, the survivor count (dose: 200.0 mg/kg/injection, schedule: Q01DX009 (ip), vehicle: saline + alcohol) is reported as 10 of 10 and the survivor count (dose: 400.0 mg/kg/injection, schedule: Q01DX009 (ip), vehicle: saline + alcohol) is reported as 10 of 10.

For Cc1cc(N(CCOS(C)(=O)=O)CCOS(C)(=O)=O)ccc1C=Nc1ccc(-c2nc(Cc3ccccc3)sc2C)cc1, the T/C [6] was 128 and 138 % of control, the T/C [7] was 139 % of control and the survivor count [8] was 8 of 10. For the same molecule, the survivor count [9] was 1 of 10, the survivor count [10] was 1 of 10 and 10 of 10 and the survivor count [11] was 1 of 10 and 10 of 10.

In the case of COc1ccc2c3c(c4cc(OC)c(OC)cc4c2c1)C[C@H]1CCCCN1C3, the survivor count (dose: 1.0 mg/kg/injection, schedule: Q01DX009 (ip), vehicle: saline) is reported as 6 of 6.

OC(CCN1CCCCC1)(c1ccccc1)C1CC2C=CC1C2 (stereo not drawn) was tested, and the survivor count (dose: 6.25 mg/kg/injection, schedule: Q01DX009 (ip), vehicle: Klucel (hydroxypropylcellulose) (HPC)) was 10 of 10, the survivor count [7] was 9 of 10 and 10 of 10 and the survivor count [8] was 10 of 10. The survivor count [9] was 9 of 10.

With CSC(=S)N/N=C/c1ccccn1 the survivor count [1] was 5 of 6, the survivor count [2] was 0 of 6 and the survivor count [3] was 2 of 6.

With C1CCN(CCC2CCCCN2)CC1 (stereo not drawn) the survivor count [4] was 10 of 10.

Cc1ccc(NCCN(C)C)c2c(=O)c3cc(O)ccc3sc12 was tested, and the T/C (dose: 6.0 mg/kg/injection, schedule: Q01DX009 (ip), vehicle: Klucel (hydroxypropylcellulose) (HPC)) was 141 % of control, the T/C [6] was 134 % of control and the survivor count (dose: 48.0 mg/kg/injection, schedule: Q01DX009 (ip), vehicle: Klucel (hydroxypropylcellulose) (HPC)) was 10 of 10. For the same molecule, the survivor count [8] was 9 of 10, the survivor count [9] was 10 of 10 and the survivor count [10] was 3 of 10.

In the case of Nc1nccc2c1ncn2C1OC(CO)C(O)C1O (stereo not drawn), the T/C (dose: 18.7 mg/kg/injection, schedule: Q03HX024 (ip), vehicle: saline with Tween-80) is reported as 125 % of control [7 of 10 alive], the survivor count (dose: 37.5 mg/kg/injection, schedule: Q03HX024 (ip), vehicle: saline with Tween-80) is reported as 9 of 10 and the survivor count (dose: 75.0 mg/kg/injection, schedule: Q03HX024 (ip), vehicle: saline with Tween-80) is reported as 5 of 10 and 6 of 10. For the same molecule, the survivor count (dose: 150.0 mg/kg/injection, schedule: Q03HX024 (ip), vehicle: saline with Tween-80) was 3 of 10 and 4 of 10.

With CC(C)N(Cc1ccccc1)CC(O)c1ccc(Cl)cc1 (stereo not drawn) the survivor count [4] was 10 of 10.

In the case of Cc1cc2c3ccc(C)[n+](C)c3ccc2n1C, the survivor count (dose: 0.6 mg/kg/injection, schedule: Q01DX009 (ip), vehicle: saline) is reported as 0 of 6, the survivor count (dose: 5.0 mg/kg/injection, schedule: Q01DX009 (ip), vehicle: saline) is reported as 0 of 6 and the survivor count (dose: 10.0 mg/kg/injection, schedule: Q01DX009 (ip), vehicle: saline) is reported as 0 of 6.

In the case of Cc1c(N)nc(C(CC(N)=O)NCC(N)C(N)=O)nc1C(=O)NC(C(=O)NC(C)C(O)C(C)C(=O)NC(C(=O)NCCc1nc(-c2nc(C(=O)NCCC[S+](C)C)cs2)cs1)C(C)O)C(OC1OC(CO)C(O)C(O)C1OC1OC(CO)C(O)C(OC(N)=O)C1O)c1cnc[nH]1 (stereo not drawn), the survivor count (dose: 31.3 mg/kg/injection, schedule: Q01DX009 (ip), vehicle: saline) is reported as 10 of 10 and the survivor count (dose: 62.5 mg/kg/injection, schedule: Q01DX009 (ip), vehicle: saline) is reported as 10 of 10.

With CC(=O)Nc1cccc(OCCCOc2cccc(C(=N)N)c2)c1 the survivor count (dose: 75.0 mg/kg/injection, schedule: Q04DX003 (ip), vehicle: Klucel (hydroxypropylcellulose) (HPC)) was 10 of 10, the survivor count (dose: 150.0 mg/kg/injection, schedule: Q04DX003 (ip), vehicle: Klucel (hydroxypropylcellulose) (HPC)) was 10 of 10 and the survivor count [10] was 10 of 10. For the same molecule, the survivor count (dose: 300.0 mg/kg/injection, schedule: Q04DX003 (ip), vehicle: Klucel (hydroxypropylcellulose) (HPC)) was 7 of 10.

For Cc1ccc(NC(=O)Nc2ccccc2Cl)cc1, the survivor count (dose: 200.0 mg/kg/injection, schedule: Q01DX009 (ip), vehicle: gum acacia) was 10 of 10 and the survivor count (dose: 400.0 mg/kg/injection, schedule: Q01DX009 (ip), vehicle: gum acacia) was 10 of 10.

With O=C(CN1CC1)NCCCCCCCCNC(=O)CN1CC1 the T/C [6] was 138 % of control, the survivor count [8] was 10 of 10 and the survivor count [9] was 1 of 10.

In the case of O=C1CN=C(c2ccccc2)c2cc(Cl)ccc2N1, the survivor count [8] is reported as 8 of 10 and the survivor count [9] is reported as 8 of 10.

For CCN(CC)CCOC(=O)Cc1cccc2c(=O)cc(-c3ccccc3)oc12, the T/C [4] was 135 % of control and the survivor count [5] was 9 of 10.

With COc1ccc2c(=O)c(C)c(-c3ccccc3)oc2c1CN(C)C the survivor count (dose: 3.12 mg/kg/injection, schedule: Q01DX009 (ip), vehicle: saline) was 9 of 10.

CN(C)CCCN1c2ccccc2Sc2ccccc21 was tested, and the survivor count (dose: 75.0 mg/kg/injection, schedule: Q01DX009 (ip), vehicle: saline) was 0 of 10.

In the case of O=[N+]([O-])c1cccc(N=Cc2ccccc2)c1, the T/C [9] is reported as 130 % of control.

For Cc1cn(C2CC(F)C(CO)O2)c(=O)[nH]c1=O (stereo not drawn), the T/C [5] was 132 % of control.

With O=C(NC(Cc1ccccc1)C(=O)N1CCCC1C(=O)O)OCc1ccccc1 (stereo not drawn) (Cbz-Phe-Pro-OH; configuration not given here) the survivor count [12] was 8 of 10.

CC(=O)Nc1nc(=O)n(CC(=O)c2cccs2)cc1F was tested, and the survivor count [9] was 10 of 10, the survivor count [10] was 10 of 10 and the survivor count [11] was 0 of 10.

With CCC(=O)NC1=C(N2CC2)C(=O)C(NC(=O)CC)=C(N2CC2)C1=O the survivor count (dose: 4.0 mg/kg/injection, schedule: Q01DX009 (ip), vehicle: saline) was 10 of 10.

For CCCCCCCCCC(=O)OC(C)C(=O)N(CCCC)CCCC (stereo not drawn), the survivor count [2] was 10 of 10, the survivor count [3] was 10 of 10 and the survivor count [12] was 10 of 10.

For Cc1cnc2c(=O)[nH]c(=O)[nH]c2n1, the survivor count [10] was 10 of 10.

For O=[N+]([O-])c1cc(F)ccc1O, the survivor count [1] was 5 of 6 and the survivor count [2] was 3 of 6.

— PubChem BioAssay AID192 (DTP/NCI, 2004)
